A short description of the assay: qHTS Assay for Lipid Storage Modulators in Drosophila S3 Cells.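 On cell number change: cells counted by Cell Tracker Red CMTPX staining in the red channel.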 As to conditions: BODIPY lipid droplet fluorescence, 18-24 h; for cell number change: measured here: cell count max response, cells fed with added oleic acid. A digest of the protocol: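 Laser-scanning cytometry quantifies lipid droplet accumulation (500–530 nm total intensity; droplet/cell object ratio) in oleic acid-fed (400 uM added) Drosophila S3 cells treated with a concentration series. 20 uM Triacsin C defined 100% inhibition.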

[1] abbreviates: measured here: cell number channel AC50, cells fed with added oleic acid.
Where [2] appears, read: measured here: lipid fluorescence (Fed channel) AC50, cells fed with added oleic acid.

Each structure is given as a SMILES string. The list shows a part of the results. These are further read-outs of the screen, such as a control signal, another cell line or another target. No call is given for them. Most of these compounds were active or inconclusive in the main read-out, so they are no random draw. The note in brackets gives the kind of curve behind each potency; many fits are weak.

Take `CC(=O)N1C(C(=O)O)CSC1c1ccc(C)cc1` (stereo not drawn): the cell number change came to 13.1%.
With `COC(=O)C1CCCCN1C(=O)c1cc(COc2cccc3cnccc23)on1` (stereo not drawn), the cell number change is -61%. For the same compound, the half-maximal activity concentration (AC50) under setting [1] was 4.61 µM [falling, partial curve]. Under setting [2], the half-maximal activity concentration (AC50) was 3.66 µM [falling, full curve].
As for `COc1ccc(N2CCN(CC(=O)Nc3sccc3C#N)CC2)cc1`, the cell number change was found to be 40%. Besides, the AC50 under setting [1] was 0.517 µM [rising, full curve, poor fit].
Turning to `CN(C)C(C)(C)C#CCC(c1ccccc1)c1ccccc1`, the cell number change came out at 12.7%. The AC50 under setting [2] is 0.184 µM [rising, full curve, poor fit].
In the case of `CCN(CC)c1ccc(CNc2ccc3c(c2)ncn3C(C)(C)C)cc1`, the cell number change is -31.5%. The AC50 under setting [2] is 32.6 µM [falling, single point].
As to `O=C(OCC(=O)N1CCCC1=O)c1cc(Cl)ccc1O`, the cell number change is -26.5%. For the same compound, under setting [2], the half-maximal activity concentration (AC50) was 0.13 µM [falling, full curve, poor fit].
Turning to `COc1cc(NS(=O)(=O)c2ccc(NC(=O)CN3C(=O)c4ccccc4C3=O)cc2)nc(OC)n1`, the cell number change amounted to 31.5%. For the same compound, the AC50 under setting [1] was 8.2 µM [rising, partial curve].
Take `Cc1cc(C)c(C)c(S(=O)(=O)Nc2ccc(OCC(=O)O)cc2)c1C`: the cell number change is 9.42%. In addition, the AC50 under setting [2] was 0.103 µM [falling, full curve, poor fit].
Turning to `C[N+]1(CCNC(=O)/C=N/O)CCCCC1`, the cell number change is -21.7%. Further, the AC50 under setting [2] was 7.31 µM [falling, single point].
Turning to `CC(C)C1Oc2ccccc2N(CC(=O)N(C)C2CCCCC2)C1=O` (stereo not drawn), the cell number change is -5.13%.
On to `COC(=O)c1cccc(Nc2ccc([N+](=O)[O-])cn2)c1`, for which the cell number change came out at 27.9%. In addition, the AC50 under setting [2] was 2.06 µM [rising, partial curve].
For the compound `CCC(C(=O)NC1CCCC1)N(C(=O)c1snc(C(N)=O)c1N)c1ccc(OC)cc1` (stereo not drawn), the cell number change stood at 29.1%. Under setting [2], the AC50 was 6.51 µM [rising, single point].
Regarding `CCCCN(C(=O)C1=NN(c2cc(C)ccc2C)C(=O)CC1)c1c(N)n(CCC)c(=O)[nH]c1=O`, the cell number change came out at 1.1%. Further, the AC50 under setting [2] is 0.13 µM [falling, full curve, poor fit].
Consider `CCCCc1c(C)c2cc(C)ccc2[nH]c1=O`, for which the half-maximal activity concentration (AC50) by setting is: under setting [1], 2.06 µM [rising, partial curve]; under setting [2], 0.291 µM [rising, partial curve, poor fit].
Turning to `O=C(NCc1ccc(F)cc1)C1CCC(CNc2c(N3CCCCC3)c(=O)c2=O)CC1` (stereo not drawn), the cell number change is 7.69%. Besides, the AC50 under setting [2] was 20.6 µM [falling, single point].
With `CCCOC(=O)c1ccc(Nc2nc(C)cc(=O)[nH]2)cc1`, the cell number change was -33.8%. Further, the AC50 under setting [1] is 32.6 µM [falling, single point].
Consider `COc1ccc(C(NC(=O)CNC(C)=O)C(=O)Nc2ccc(C(C)C)cc2)cc1` (stereo not drawn), for which the cell number change is -16.9%. Moreover, the AC50 under setting [2] is 0.13 µM [falling, full curve, poor fit].
On to `CCOC(=O)C(C(C)=O)C(c1ccc(OCCC(C)C)cc1)C(C(C)=O)C(=O)OCC` (stereo not drawn), for which the cell number change was -12.1%. Further, the AC50 under setting [2] is 1.64 µM [falling, partial curve, poor fit].
As for `N=c1c(C(=O)NCCN2CCOCC2)cc2c(=O)n3ccccc3nc2n1Cc1ccc(F)cc1`, the cell number change amounted to 3.54%.
`CCOC(=O)c1sc(NC(=O)c2cccc(S(=O)(=O)N3c4ccccc4CC3C)c2)cc1C` (stereo not drawn): under setting [2], the AC50 was 23.1 µM [rising, single point].
With `CCOC(=O)c1cc(C(=O)OCC)cc(-n2cc(O)c(C(=O)OCC)n2)c1`, the cell number change is -28.7%. Under setting [2], the AC50 is 29.1 µM [falling, single point].
As to `CC(=O)c1ccc(N2CCN(C(=O)CCC(=O)Nc3ccc4nc(N5CCN(C)CC5)cc(C)c4c3)CC2)cc1`, the cell number change is 7.14%. The AC50 under setting [2] is 10.3 µM [rising, partial curve].
In the case of `CN(CC(=O)Nc1ccc(S(=O)(=O)N2CCCC2)cc1)Cc1ccc(Cl)cc1`, the AC50 under setting [2] was 9.2 µM [falling, partial curve, poor fit].
Take `O=C1CN(C(=O)COC(=O)c2cccc(Br)c2)c2ccccc2N1`: the cell number change came out at 14%. In addition, the half-maximal activity concentration (AC50) under setting [2] was 13 µM [rising, partial curve].
`Nc1c(S(=O)(=O)c2cccs2)c2nc3ccccc3nc2n1CCc1ccccc1`: the cell number change was -3.51%.
As to `COc1ccc(C)c2sc(NC(=O)c3cccc(N4C(=O)CCC4=O)c3)nc12`, the cell number change came out at 13%.
With `COCCCN1C(=O)c2ccc(C(=O)OCC(=O)N(CCC#N)c3cc(C)cc(C)c3)cc2C1=O`, the cell number change is 85%. The AC50 under setting [1] is 29.1 µM [rising, single point].
Turning to `O=[N+]([O-])c1ccc(Oc2cc(NC3CCCCCCC3)c([N+](=O)[O-])cc2[N+](=O)[O-])cc1`, the cell number change was -10.8%.
Turning to `Cc1cc(C)cc(C(=O)Nc2cccnc2)c1`, the cell number change is -3.81%. Moreover, the AC50 under setting [2] is 29.1 µM [rising, single point].
For `Cc1cccc(C(=O)N(Cc2cccs2)C2CCS(=O)(=O)C2)c1` (stereo not drawn), the cell number change stood at 8.96%.
For `COc1cc(OC)cc(C(=O)NC2=NCCS2)c1`, the cell number change was -10.1%. The AC50 under setting [2] was 0.0164 µM [rising, full curve, poor fit].
With `CN(C)/C=C(\C#N)C(=O)Nc1ccccc1`, the cell number change is -2.61%. The AC50 under setting [2] is 2.91 µM [rising, partial curve].
Turning to `Cc1cccc(NC(=O)Cn2cc(C(=O)c3ccco3)c3ccccc32)c1`, the cell number change is -12.6%.
As to `COc1ccc(N2CCN(C(=O)CCCC3=NS(=O)(=O)c4ccccc4N3)CC2)cc1`, the cell number change was -0.976%. The AC50 under setting [1] is 0.517 µM [rising, full curve].
As to `CC(=O)c1ccc(OCC(=O)OC(C)C(=O)NC2CCCCC2C)cc1` (stereo not drawn), under setting [2], the AC50 is 29.1 µM [falling, single point].
As to `CNc1ccncc1S(=O)(=O)NC`, the cell number change stood at 7.76%. The concentration at half-maximal activity (AC50) under setting [2] was 0.0058 µM [falling, full curve, poor fit].
As to `Cc1nc2cc(NC(=O)c3ccc([N+](=O)[O-])s3)ccc2s1`, the cell number change is 11.4%. For the same compound, the concentration at half-maximal activity (AC50) under setting [2] is 0.58 µM [rising, single point].
As to `CC1CCN(CC(=O)N2CCN(c3ccccc3)CC2)CC1`, the cell number change was -3.44%.
As for `CS(=O)(=O)N(CC(N)=O)Cc1ccc(Cl)cc1`, the cell number change is -45.3%. Further, under setting [1], the AC50 was 29.1 µM [falling, single point].
Consider `CCOC(=O)CCNC(=O)N1CCCC(C(=O)c2ccccc2SC)C1` (stereo not drawn), for which the cell number change was -37%. Also, the AC50 under setting [2] is 18.4 µM [falling, single point].
For `Cc1ccc(S(=O)(=O)N(C)c2ccc(OCC(=O)NCc3ccco3)cc2)cc1`, the cell number change came out at 36.1%. Moreover, the half-maximal activity concentration (AC50) under setting [1] was 5.17 µM [rising, full curve, poor fit]. Also, under setting [2], the AC50 is 5.8 µM [rising, single point].
Turning to `Cc1ccc(S(=O)(=O)NC2=NCN(C3CCN(Cc4ccccc4)CC3)CN2)cc1`, the cell number change was found to be 5.84%.
In the case of `CC(=O)c1cccc(NC(=O)COc2cc3oc(=O)c(CC(C)O)c(C)c3cc2Cl)c1` (stereo not drawn), the cell number change is -22%. In addition, under setting [2], the AC50 was 9.2 µM [falling, partial curve, poor fit].
On to `Cc1cccc(N2CCN(C(=O)N3CCCCC3)CC2)c1C`, for which the half-maximal activity concentration (AC50) under setting [1] was 0.13 µM [falling, full curve, poor fit].
Turning to `CSc1ccc(Cl)c(C(=O)OCC(=O)N2CCNC2=O)c1`, the cell number change came to 0.973%. Moreover, the AC50 under setting [1] was 0.0517 µM [falling, full curve, poor fit].
With `COc1ccccc1OC(=O)c1ccc(S(=O)(=O)N(C)C)cc1`, the cell number change is -43%. Further, the AC50 under setting [1] was 8.2 µM [falling, partial curve, poor fit]. For the same compound, under setting [2], the AC50 is 0.092 µM [falling, full curve, poor fit].
In the case of `O=c1ccc(-c2ccccc2)nn1Cc1ccccc1F`, the cell number change turned out to be 3.57%. In addition, the AC50 under setting [2] was 0.13 µM [rising, full curve, poor fit].
Consider `COc1ccc(COc2ccccc2C(N)=O)cc1F`, for which the cell number change was found to be 15.3%. The concentration at half-maximal activity (AC50) under setting [2] was 0.0731 µM [falling, full curve, poor fit].
Regarding `Cc1nc(NC(=O)c2ccc3c(c2)OCO3)ccc1Br`, the cell number change amounted to 5.65%. Moreover, the concentration at half-maximal activity (AC50) under setting [1] was 4.61 µM [rising, partial curve, poor fit]. Further, the half-maximal activity concentration (AC50) under setting [2] was 0.146 µM [rising, full curve, poor fit].
Consider `Cc1c(C(=O)O)oc2ccc(S(=O)(=O)N3CCCC3)cc12`, for which the cell number change was -11.3%.
For the compound `O=C1[C@@H]2Cc3c([nH]c4ccccc34)C(c3ccccc3)N2C(=O)CN1C1CCN(Cc2ccccc2)CC1` (stereo partly drawn), the cell number change is -53.5%. Under setting [1], the AC50 is 29.1 µM [falling, single point]. Further, the AC50 under setting [2] is 29.1 µM [falling, single point].
Regarding `CC(=O)NC1(c2ccccc2)CCN(Cc2nnnn2C(C)(C)C)CC1`, the cell number change amounted to 14.4%. Besides, the AC50 under setting [2] was 29.1 µM [falling, single point].
Turning to `O=C(CSc1nc2c(cnn2-c2ccccc2)c(=O)[nH]1)N1CCOCC1`, the cell number change is 8.33%. Under setting [2], the AC50 is 0.092 µM [rising, full curve, poor fit].
Consider `Cc1cc(C)c(S(=O)(=O)N/N=C/c2ccc([N+](=O)[O-])o2)c(C)c1`, for which the cell number change was found to be 0.495%. For the same compound, the AC50 under setting [2] is 29.1 µM [rising, single point].
For the compound `CCCCOC(=O)C1=C(C)Nc2ncnn2C1c1ccc(OCC)c(OC)c1` (stereo not drawn), the cell number change was -20.6%.
Consider `Cc1ccc(C)c(Nc2nc(N)c3ccccc3n2)c1`, for which the cell number change was 15%.
For the compound `Nc1c(Cl)cc(Cl)cc1C(=O)OCC(=O)N1CCOCC1`, the cell number change came out at 33%. For the same compound, under setting [1], the concentration at half-maximal activity (AC50) is 4.11 µM [rising, full curve, poor fit]. The AC50 under setting [2] is 6.51 µM [rising, partial curve, poor fit].
Turning to `CC(C)Nc1nc(NC(C)C)nc(C(N)=O)n1`, the cell number change is 5.5%. For the same compound, the half-maximal activity concentration (AC50) under setting [2] is 29.1 µM [falling, partial curve, poor fit].
For the compound `O=C(CNc1ccc(F)cc1)c1ccccc1`, the cell number change stood at 0.551%. In addition, the concentration at half-maximal activity (AC50) under setting [2] is 0.366 µM [falling, partial curve, poor fit].
For the compound `CCn1nnnc1SCC(=O)c1ccc(C)cc1C`, the cell number change was -11.8%. Also, the concentration at half-maximal activity (AC50) under setting [2] is 6.51 µM [falling, single point].
Regarding `CC(C)c1ccc2nc(N)sc2c1`, the cell number change is -23.1%. Also, under setting [1], the concentration at half-maximal activity (AC50) is 0.291 µM [falling, full curve, poor fit].
With `COC(=O)c1c(NC(=O)CN2CCN(c3ccccc3OC)CC2)c2c(C)cccc2n1C`, the cell number change worked out at 12.2%.
On the same count and under the same terms, the result for `CC1=C(C)CC(C(=O)NC2CCCC2)C(C(=O)O)C1` (stereo not drawn) reads -1.1%.
